According to the supplement of paper PMC8728848:
This is one part of the list.

Assays:
Assay in all cases: glycan array binding signal (z-score within array); higher = stronger binding
Conditions in all cases: glycan notation: IUPAC condensed, linker removed
Fuc(a1-2)Gal = target: Fuc(a1-2)Gal
Procedure, shortened: (§1)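 Glycan array data came from 3228 arrays in the Consortium for Functional Glycomics database, and only arrays with an available protein sequence were kept. Glycan names were put into IUPAC-condensed notation, and columns mapping to the same glycan were averaged. The binding signal is a within-array Z-score, averaged across arrays of one protein sequence run at different concentrations or buffers and across linkers. A negative Z-score can be read as non-binding.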

Fuc(a1-2)Gal(b1-3)GalNAc = target: Fuc(a1-2)Gal(b1-3)GalNAc
Procedure, shortened: as §1

[1] = target: Fuc(a1-2)Gal(b1-3)GalNAc(a1-3)[Fuc(a1-2)]Gal(b1-4)Glc
Procedure, shortened: as §1

[2] = target: Fuc(a1-2)Gal(b1-3)GalNAc(a1-3)[Fuc(a1-2)]Gal(b1-4)GlcNAc
Procedure, shortened: as §1

[3] = target: Fuc(a1-2)Gal(b1-3)GalNAc(b1-3)Gal
Procedure, shortened: as §1

[4] = target: Fuc(a1-2)Gal(b1-3)GalNAc(b1-3)Gal(a1-4)Gal(b1-4)Glc
Procedure, shortened: as §1

[5] = target: Fuc(a1-2)Gal(b1-3)GalNAc(b1-4)[Neu5Ac(a2-3)]Gal(b1-4)Glc
Procedure, shortened: as §1

Fuc(a1-2)Gal(b1-3)GlcNAc = target: Fuc(a1-2)Gal(b1-3)GlcNAc
Procedure, shortened: as §1

[6] = target: Fuc(a1-2)Gal(b1-3)GlcNAc(b1-2)Man(a1-3)[Fuc(a1-2)Gal(b1-3)GlcNAc(b1-2)Man(a1-6)]Man(b1-4)GlcNAc(b1-4)GlcNAc
Procedure, shortened: as §1

[7] = target: Fuc(a1-2)Gal(b1-3)GlcNAc(b1-2)Man(a1-3)[Fuc(a1-2)Gal(b1-3)GlcNAc(b1-2)Man(a1-6)]Man(b1-4)GlcNAc(b1-4)[Fuc(a1-6)]GlcNAc
Procedure, shortened: as §1

[8] = target: Fuc(a1-2)Gal(b1-3)GlcNAc(b1-3)Gal(b1-4)Glc
Procedure, shortened: as §1

[9] = target: Fuc(a1-2)Gal(b1-3)GlcNAc(b1-3)GalNAc
Procedure, shortened: as §1

[10] = target: Fuc(a1-2)Gal(b1-3)GlcNAc(b1-3)[Fuc(a1-2)Gal(b1-3)GlcNAc(b1-6)]GalNAc
Procedure, shortened: as §1

[11] = target: Fuc(a1-2)Gal(b1-3)GlcNAc(b1-3)[Fuc(a1-3)[Gal(b1-4)]GlcNAc(b1-6)]Gal(b1-4)Glc
Procedure, shortened: as §1

[12] = target: Fuc(a1-2)Gal(b1-3)GlcNAc(b1-3)[Gal(b1-4)GlcNAc(b1-6)]Gal(b1-4)Glc
Procedure, shortened: as §1

[13] = target: Fuc(a1-2)Gal(b1-3)GlcNAc(b1-3)[Neu5Ac(a2-6)Gal(b1-4)GlcNAc(b1-6)]Gal(b1-4)Glc
Procedure, shortened: as §1

[14] = target: Fuc(a1-2)Gal(b1-3)GlcNAc6S
Procedure, shortened: as §1

[15] = target: Fuc(a1-2)Gal(b1-3)[Fuc(a1-4)]GlcNAc
Procedure, shortened: as §1

[16] = target: Fuc(a1-2)Gal(b1-3)[Fuc(a1-4)]GlcNAc(b1-2)Man(a1-3)[Fuc(a1-2)Gal(b1-3)[Fuc(a1-4)]GlcNAc(b1-2)Man(a1-3)]Man(b1-4)GlcNAc(b1-4)GlcNAc
Procedure, shortened: as §1

[17] = target: Fuc(a1-2)Gal(b1-3)[Fuc(a1-4)]GlcNAc(b1-2)Man(a1-3)[Fuc(a1-2)Gal(b1-3)[Fuc(a1-4)]GlcNAc(b1-2)Man(a1-6)]Man(b1-4)GlcNAc(b1-4)GlcNAc
Procedure, shortened: as §1

[18] = target: Fuc(a1-2)Gal(b1-3)[Fuc(a1-4)]GlcNAc(b1-2)Man(a1-3)[Fuc(a1-2)Gal(b1-3)[Fuc(a1-4)]GlcNAc(b1-2)Man(a1-6)]Man(b1-4)GlcNAc(b1-4)[Fuc(a1-6)]GlcNAc(b1-4)[Fuc(a1-6)]GlcNAc
Procedure, shortened: as §1

[19] = target: Fuc(a1-2)Gal(b1-3)[Fuc(a1-4)]GlcNAc(b1-3)[Fuc(a1-3)[Gal(b1-4)]GlcNAc(b1-6)]Gal(b1-4)Glc
Procedure, shortened: as §1

[20] = target: Fuc(a1-2)Gal(b1-3)[Fuc(a1-4)]GlcNAc(b1-3)[Gal(b1-4)GlcNAc(b1-6)]Gal(b1-4)Glc
Procedure, shortened: as §1

[21] = target: Fuc(a1-2)Gal(b1-4)Fuc(a1-3)]GlcNAc(b1-2)Man(a1-3)[Fuc(a1-2)Gal(b1-4)[Fuc(a1-3)]GlcNAc(b1-2)Man(a1-6)]Man(b1-4)GlcNAc(b1-4)GlcNAc
Procedure, shortened: as §1

Fuc(a1-2)Gal(b1-4)Glc = target: Fuc(a1-2)Gal(b1-4)Glc
Procedure, shortened: as §1

Fuc(a1-2)Gal(b1-4)Glc6S = target: Fuc(a1-2)Gal(b1-4)Glc6S
Procedure, shortened: as §1

Fuc(a1-2)Gal(b1-4)GlcNAc = target: Fuc(a1-2)Gal(b1-4)GlcNAc
Procedure, shortened: as §1

[22] = target: Fuc(a1-2)Gal(b1-4)GlcNAc(b1-2)Man
Procedure, shortened: as §1

[23] = target: Fuc(a1-2)Gal(b1-4)GlcNAc(b1-2)Man(a1-3)[Fuc(a1-2)Gal(b1-4)GlcNAc(b1-2)Man(a1-6)]Man(b1-4)GlcNAc(b1-4)GlcNAc
Procedure, shortened: as §1

[24] = target: Fuc(a1-2)Gal(b1-4)GlcNAc(b1-2)Man(a1-3)[Fuc(a1-2)Gal(b1-4)GlcNAc(b1-2)Man(a1-6)]Man(b1-4)GlcNAc(b1-4)[Fuc(a1-6)]GlcNAc
Procedure, shortened: as §1

[25] = target: Fuc(a1-2)Gal(b1-4)GlcNAc(b1-2)[Fuc(a1-2)Gal(b1-4)GlcNAc(b1-4)]Man(a1-3)[Fuc(a1-2)Gal(b1-4)GlcNAc(b1-2)Man(a1-6)]Man(b1-4)GlcNAc(b1-4)GlcNAc
Procedure, shortened: as §1

[26] = target: Fuc(a1-2)Gal(b1-4)GlcNAc(b1-3)Gal(b1-4)GlcNAc
Procedure, shortened: as §1

[27] = target: Fuc(a1-2)Gal(b1-4)GlcNAc(b1-3)Gal(b1-4)GlcNAc(b1-2)Man(a1-3)[Fuc(a1-2)Gal(b1-4)GlcNAc(b1-3)Gal(b1-4)GlcNAc(b1-2)Man(a1-6)]Man(b1-4)GlcNAc(b1-4)GlcNAc
Procedure, shortened: as §1

[28] = target: Fuc(a1-2)Gal(b1-4)GlcNAc(b1-3)Gal(b1-4)GlcNAc(b1-3)Gal(b1-4)GlcNAc
Procedure, shortened: as §1

[29] = target: Fuc(a1-2)Gal(b1-4)GlcNAc(b1-3)GalNAc
Procedure, shortened: as §1

[30] = target: Fuc(a1-2)Gal(b1-4)GlcNAc(b1-3)[Fuc(a1-2)Gal(b1-4)GlcNAc(b1-6)]GalNAc
Procedure, shortened: as §1

[31] = target: Fuc(a1-2)Gal(b1-4)GlcNAc(b1-3)[Fuc(a1-3)[Gal(b1-4)]GlcNAc(b1-6)]Gal(b1-4)Glc
Procedure, shortened: as §1

[32] = target: Fuc(a1-2)Gal(b1-4)GlcNAc(b1-6)GalNAc
Procedure, shortened: as §1

[33] = target: Fuc(a1-2)Gal(b1-4)GlcNAc6S
Procedure, shortened: as §1

[34] = target: Fuc(a1-2)Gal(b1-4)[Fuc(a1-3)]GlcNAc
Procedure, shortened: as §1

[35] = target: Fuc(a1-2)Gal(b1-4)[Fuc(a1-3)]GlcNAc(b1-2)Man(a1-3)[Fuc(a1-2)Gal(b1-4)[Fuc(a1-3)]GlcNAc(b1-2)Man(a1-6)]Man(b1-4)GlcNAc(b1-4)GlcNAc
Procedure, shortened: as §1

[36] = target: Fuc(a1-2)Gal(b1-4)[Fuc(a1-3)]GlcNAc(b1-2)Man(a1-3)[Fuc(a1-2)Gal(b1-4)[Fuc(a1-3)]GlcNAc(b1-2)Man(a1-6)]Man(b1-4)GlcNAc(b1-4)[Fuc(a1-6)]GlcNAc
Procedure, shortened: as §1

[37] = target: Fuc(a1-2)Gal(b1-4)[Fuc(a1-3)]GlcNAc(b1-2)[Fuc(a1-2)Gal(b1-4)[Fuc(a1-3)]GlcNAc(b1-4)]Man(a1-3)[Fuc(a1-2)Gal(b1-4)[Fuc(a1-3)]GlcNAc(b1-2)Man(a1-6)]Man(b1-4)GlcNAc(b1-4)GlcNAc
Procedure, shortened: as §1

[38] = target: Fuc(a1-2)Gal(b1-4)[Fuc(a1-3)]GlcNAc(b1-3)Gal(b1-4)[Fuc(a1-3)]GlcNAc
Procedure, shortened: as §1

[39] = target: Fuc(a1-2)Gal(b1-4)[Fuc(a1-3)]GlcNAc(b1-3)Gal(b1-4)[Fuc(a1-3)]GlcNAc(b1-3)Gal(b1-4)[Fuc(a1-3)]GlcNAc
Procedure, shortened: as §1

B1: GST-Gap1 (Streptococcus parasanguinis), A1C3L5 (protein)
chain: MFYFVPSWYNGQRQWYYDTPWWFRVKNRMTFDDSVNQVKMFLQGQEEIGLMILNYQPQLRYFLHKQNIFGIYYWSFFDDIQNITRSYTKIIHLKDLNWPEGCEFLYSPFAVVVRLKGEIFAIVNYAEDGNLHSVSFQKNGKVTKDYIFDDRGFLSSILYYDIDERPLYQDYLNINGVWQVREFLKKENDPTPILMINDFSDQTFSKKYYNGWEELIKERLAIFQNNHVENEDVFVLASDTQHNQLVSSIFKEHRKIYSFFGNRFNLENLGQDRISINDATFLVVDTEKNEELLRKTCENLVFKSIPIVRLSPFDSRLRLGHSQTVKEQIIYFHIDNIELDELYSVIAIILELMTLHLDIELRIVTFRQDFQLDLLKTWIIDFIKTNHFEDLLFKQISEGENEIEDEGEIELSRIAMECFTNENQIIKCLDTARLVIDLGIEPDLYTQIASISAGIPQINRVSSDYVIHQKNGLVISDISKLSSAIEFYFDGLFNWNEALIYAVRKMSDYTSGKILKQWKGMLKKK
glycan array binding signal (z-score) (Fuc(a1-2)Gal): 0.04
glycan array binding signal (z-score) (Fuc(a1-2)Gal(b1-3)GalNAc): -0.117
glycan array binding signal (z-score) [1]: -0.342
glycan array binding signal (z-score) [2]: -0.335
glycan array binding signal (z-score) [3]: 0.044
glycan array binding signal (z-score) [4]: 0.159
glycan array binding signal (z-score) [5]: -0.556
glycan array binding signal (z-score) (Fuc(a1-2)Gal(b1-3)GlcNAc): -0.221
glycan array binding signal (z-score) [6]: 0.565
glycan array binding signal (z-score) [7]: 0.252
glycan array binding signal (z-score) [8]: -0.291
glycan array binding signal (z-score) [9]: 0.373
glycan array binding signal (z-score) [10]: -0.608
glycan array binding signal (z-score) [11]: -0.458
glycan array binding signal (z-score) [12]: 0.111
glycan array binding signal (z-score) [13]: -0.503
glycan array binding signal (z-score) [14]: 0.74
glycan array binding signal (z-score) [15]: -0.311
glycan array binding signal (z-score) [16]: 0.383
glycan array binding signal (z-score) [17]: 0.607
glycan array binding signal (z-score) [18]: -0.061
glycan array binding signal (z-score) [19]: -0.816
glycan array binding signal (z-score) [20]: -0.441
glycan array binding signal (z-score) [21]: -0.849
glycan array binding signal (z-score) (Fuc(a1-2)Gal(b1-4)Glc): -0.56
glycan array binding signal (z-score) (Fuc(a1-2)Gal(b1-4)Glc6S): -0.122
glycan array binding signal (z-score) (Fuc(a1-2)Gal(b1-4)GlcNAc): 0.124
glycan array binding signal (z-score) [22]: -0.936
glycan array binding signal (z-score) [23]: 0.389
glycan array binding signal (z-score) [24]: 0.411
glycan array binding signal (z-score) [25]: 0.027
glycan array binding signal (z-score) [26]: -0.608
glycan array binding signal (z-score) [27]: 0.781
glycan array binding signal (z-score) [28]: -0.355
glycan array binding signal (z-score) [29]: -0.128
glycan array binding signal (z-score) [30]: -0.255
glycan array binding signal (z-score) [31]: 0.835
glycan array binding signal (z-score) [32]: 0.536
glycan array binding signal (z-score) [33]: -1.12
glycan array binding signal (z-score) [34]: -0.297
glycan array binding signal (z-score) [35]: -0.502
glycan array binding signal (z-score) [36]: -0.571
glycan array binding signal (z-score) [37]: 0.849
glycan array binding signal (z-score) [38]: -0.143
glycan array binding signal (z-score) [39]: 0.237
